Measurements reported in the supplement of paper PMC4604168 (melanoma cell lines).
The list shows a part of the results. Many values rest on one well or one pass, so single values are uncertain.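 Imaging used 1,536-well plates; nuclei positive for cleaved PARP by antibody were divided by total DNA-stained nuclei to yield the apoptosis fraction. Doses for screening kept most cells viable, and cell lines differ markedly in resting and induced cleaved-PARP levels.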

Each compound was assayed on LB2518-MEL (assay: cleaved PARP positive nuclei fraction relative to DMSO control; melanoma cells; higher = more apoptosis). Conditions: library dose: low library concentration; 72 h.

SMILES | cleaved PARP positive nuclei fraction [%]
Cn1sc(=O)n(Cc2ccccc2)c1=O + COc1cc2ncnc(Nc3ccc(Oc4ccccc4)cc3)c2cc1OC [SrcI1] (first compound 0.4 µM, partner dose 2 µM) | 135
Cn1cnc2c(F)c(Nc3ccc(Br)cc3Cl)c(C(=O)NOCCO)cc21 [selumetinib] + Oc1nc(-c2ccc(C(F)(F)F)cc2)nc2c1CSCC2 [XAV939] (first compound 0.015 µM, partner dose 2 µM) | 111
NC1(c2ccc(-c3nc4ccn5c(=O)[nH]nc5c4cc3-c3ccccc3)cc2)CCC1 + COc1cc2ncnc(Nc3ccc(Oc4ccccc4)cc3)c2cc1OC [SrcI1] (first compound 0.4 µM, partner dose 2 µM) | 21.7
Cn1sc(=O)n(Cc2ccccc2)c1=O + Cn1cc(/C=C2\C(=O)Nc3cccnc32)c2ccccc21 [GW441756] (first compound 0.4 µM, partner dose 0.4 µM) | 63.6
C[C@@H](N)c1ccc(C(=O)Nc2ccnc3[nH]ccc23)cc1 + COc1cc2ncnc(Nc3ccc(Oc4ccccc4)cc3)c2cc1OC [SrcI1] (first compound 0.4 µM, partner dose 2 µM) | 45.9
CCCCCCCCc1ccc(CCC(N)(CO)CO)cc1 [fingolimod] + Oc1cc(-c2nc(-c3ccccc3)[nH]c2-c2ccncc2)ccc1Cl [L779450] (first compound 2 µM, partner dose 0.2 µM) | 142
C[C@@H](N)c1ccc(C(=O)Nc2ccnc3[nH]ccc23)cc1 + O=S(=O)(c1ccccc1)N(CC(F)(F)F)c1ccc(C(O)(C(F)(F)F)C(F)(F)F)cc1 [T0901317] (first compound 0.4 µM, partner dose 1.4 µM) | 60.2
CN(c1ncccc1CNc1nc(Nc2ccc3c(c2)CC(=O)N3)ncc1C(F)(F)F)S(C)(=O)=O + O=c1cc(-c2cccc3c2Sc2ccccc2S3)oc(N2CCOCC2)c1 [KU55933] (first compound 0.08 µM, partner dose 1 µM) | 55.6
C[C@]1(O)C[C@@H](c2nc(-c3ccc4ccc(-c5ccccc5)nc4c3)c3c(N)nccn32)C1 + CCc1ccc(CCOc2ccc(CC3SC(=O)NC3=O)cc2)nc1 [pioglitazone] (first compound 0.4 µM, partner dose 2 µM) | 233
C[C@]1(O)C[C@@H](c2nc(-c3ccc4ccc(-c5ccccc5)nc4c3)c3c(N)nccn32)C1 + COc1ccc2c(c1)CCC1C2CCC2(C)C(NCCCCCCN3C(=O)C=CC3=O)CCC12 [U73122] (first compound 0.4 µM, partner dose 0.4 µM) | 115
C[C@]1(O)C[C@@H](c2nc(-c3ccc4ccc(-c5ccccc5)nc4c3)c3c(N)nccn32)C1 + O=C1NC(=O)/C(=C/c2ccc(-c3ccc(F)cc3O)o2)S1 [AS252424] (first compound 0.4 µM, partner dose 1 µM) | 74.2
C[C@]1(O)C[C@@H](c2nc(-c3ccc4ccc(-c5ccccc5)nc4c3)c3c(N)nccn32)C1 + O=C(Nc1ccccc1)c1cc([N+](=O)[O-])ccc1Cl [GW9662] (first compound 0.4 µM, partner dose 2 µM) | 157
CCN(CC)CCNC(=O)c1c(C)[nH]c(/C=C2\C(=O)Nc3ccc(F)cc32)c1C [sunitinib] + O=c1cc(-c2cccc3c2Sc2ccccc2S3)oc(N2CCOCC2)c1 [KU55933] (first compound 0.4 µM, partner dose 1 µM) | 152
Cn1cnc2c(F)c(Nc3ccc(Br)cc3Cl)c(C(=O)NOCCO)cc21 [selumetinib] + O=S(=O)(c1ccccc1)N(CC(F)(F)F)c1ccc(C(O)(C(F)(F)F)C(F)(F)F)cc1 [T0901317] (first compound 0.015 µM, partner dose 1.4 µM) | 112
NC1(c2ccc(-c3nc4ccn5c(=O)[nH]nc5c4cc3-c3ccccc3)cc2)CCC1 + O=C(O)C(=O)Nc1sc2c(c1C(=O)O)CCNC2 [TCS401] (first compound 0.4 µM, partner dose 1.66667 µM) | 170
Cn1cnc2c(F)c(Nc3ccc(Br)cc3Cl)c(C(=O)NOCCO)cc21 [selumetinib] + COc1ccc2c(c1)CCC1C2CCC2(C)C(NCCCCCCN3C(=O)C=CC3=O)CCC12 [U73122] (first compound 0.015 µM, partner dose 0.4 µM) | 364
Cn1sc(=O)n(Cc2ccccc2)c1=O + c1cc(-c2cnn3cc(-c4ccc(OCCN5CCCCC5)cc4)cnc23)ccn1 [Dorsomorphin] (first compound 0.4 µM, partner dose 0.4 µM) | 73.9
CC(=O)O[C@@]12CO[C@@H]1C[C@H](O)[C@@]1(C)C(=O)[C@H](O)C3=C(C)[C@@H](OC(=O)[C@H](O)[C@@H](NC(=O)OC(C)(C)C)c4ccccc4)C[C@@](O)([C@@H](OC(=O)c4ccccc4)[C@H]21)C3(C)C [Docetaxel] + N#Cc1c(O)c2c(-c3ccc(-c4ccccc4O)cc3)csc2[nH]c1=O [A769662] (first compound 0.0001 µM, partner dose 2 µM) | 141
Cn1cnc2c(F)c(Nc3ccc(Br)cc3Cl)c(C(=O)NOCCO)cc21 [selumetinib] + Oc1cc(-c2nc(-c3ccccc3)[nH]c2-c2ccncc2)ccc1Cl [L779450] (first compound 0.015 µM, partner dose 0.2 µM) | 86.3
Cn1sc(=O)n(Cc2ccccc2)c1=O + CCCCCCCCCCCC1=C(O)C(=O)C=C(O)C1=O [Embelin] (first compound 0.4 µM, partner dose 1.2 µM) | 38.6
CCN(CC)CCNC(=O)c1c(C)[nH]c(/C=C2\C(=O)Nc3ccc(F)cc32)c1C [sunitinib] + CCc1ccc(CCOc2ccc(CC3SC(=O)NC3=O)cc2)nc1 [pioglitazone] (first compound 0.4 µM, partner dose 2 µM) | 53.1

In another format: results already given
SMILES,cleaved PARP positive nuclei fraction [%]
"C[C@@H](N)c1ccc(C(=O)Nc2ccnc3[nH]ccc23)cc1 + O=S(=O)(c1ccccc1)N(CC(F)(F)F)c1ccc(C(O)(C(F)(F)F)C(F)(F)F)cc1 [T0901317] (first compound 0.4 µM, partner dose 1.4 µM)",60.2
"CN(c1ncccc1CNc1nc(Nc2ccc3c(c2)CC(=O)N3)ncc1C(F)(F)F)S(C)(=O)=O + O=c1cc(-c2cccc3c2Sc2ccccc2S3)oc(N2CCOCC2)c1 [KU55933] (first compound 0.08 µM, partner dose 1 µM)",55.6
